For assay [1], the target named is radixin_(1-318), Strep-tagged, purified (human) (UniProt P35241). Description: pull-down; Strep-tagged partner immobilised on Strep-Tactin resin, detergent-solubilised purified BSEP added for 30 min at 4°C; 50 mM sodium phosphate pH 7, 150 mM NaCl, 20% glycerol, 0.022% DDM; immunoblot against BSEP and Strep-tag II; both purified.
The target in assay [2] is bile salt export pump (BSEP, ABCB11), MYTH bait (human) (UniProt O95342). Description: two-hybrid; membrane yeast two-hybrid (MYTH, split-ubiquitin) in S. cerevisiae NMY51; bait BSEP-Cub-LexA-VP16 (pBT3-C), preys NubG-X human adult liver cDNA library; growth on SD-LWH, then SD-LWHAd with X-Gal; retransformation of each prey and bait dependency test against large T antigen-Ost4p; control with NubG-nonsense peptide.

Chains of the proteins cited; added tags and fusions are not shown. Lines headed by an entry give the natural chain unless they say otherwise; changes in a name come on top. Residues count along the entry.
UniProt P35241, residues 1-318: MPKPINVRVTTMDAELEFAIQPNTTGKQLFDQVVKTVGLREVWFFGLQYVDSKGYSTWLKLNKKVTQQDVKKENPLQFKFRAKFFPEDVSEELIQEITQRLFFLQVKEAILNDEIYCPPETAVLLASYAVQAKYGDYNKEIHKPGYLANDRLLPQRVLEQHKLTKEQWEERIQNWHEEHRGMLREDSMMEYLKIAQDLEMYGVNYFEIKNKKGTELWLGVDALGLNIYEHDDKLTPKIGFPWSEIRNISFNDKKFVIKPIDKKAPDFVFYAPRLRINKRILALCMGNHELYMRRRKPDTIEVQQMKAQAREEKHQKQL
UniProt O95342: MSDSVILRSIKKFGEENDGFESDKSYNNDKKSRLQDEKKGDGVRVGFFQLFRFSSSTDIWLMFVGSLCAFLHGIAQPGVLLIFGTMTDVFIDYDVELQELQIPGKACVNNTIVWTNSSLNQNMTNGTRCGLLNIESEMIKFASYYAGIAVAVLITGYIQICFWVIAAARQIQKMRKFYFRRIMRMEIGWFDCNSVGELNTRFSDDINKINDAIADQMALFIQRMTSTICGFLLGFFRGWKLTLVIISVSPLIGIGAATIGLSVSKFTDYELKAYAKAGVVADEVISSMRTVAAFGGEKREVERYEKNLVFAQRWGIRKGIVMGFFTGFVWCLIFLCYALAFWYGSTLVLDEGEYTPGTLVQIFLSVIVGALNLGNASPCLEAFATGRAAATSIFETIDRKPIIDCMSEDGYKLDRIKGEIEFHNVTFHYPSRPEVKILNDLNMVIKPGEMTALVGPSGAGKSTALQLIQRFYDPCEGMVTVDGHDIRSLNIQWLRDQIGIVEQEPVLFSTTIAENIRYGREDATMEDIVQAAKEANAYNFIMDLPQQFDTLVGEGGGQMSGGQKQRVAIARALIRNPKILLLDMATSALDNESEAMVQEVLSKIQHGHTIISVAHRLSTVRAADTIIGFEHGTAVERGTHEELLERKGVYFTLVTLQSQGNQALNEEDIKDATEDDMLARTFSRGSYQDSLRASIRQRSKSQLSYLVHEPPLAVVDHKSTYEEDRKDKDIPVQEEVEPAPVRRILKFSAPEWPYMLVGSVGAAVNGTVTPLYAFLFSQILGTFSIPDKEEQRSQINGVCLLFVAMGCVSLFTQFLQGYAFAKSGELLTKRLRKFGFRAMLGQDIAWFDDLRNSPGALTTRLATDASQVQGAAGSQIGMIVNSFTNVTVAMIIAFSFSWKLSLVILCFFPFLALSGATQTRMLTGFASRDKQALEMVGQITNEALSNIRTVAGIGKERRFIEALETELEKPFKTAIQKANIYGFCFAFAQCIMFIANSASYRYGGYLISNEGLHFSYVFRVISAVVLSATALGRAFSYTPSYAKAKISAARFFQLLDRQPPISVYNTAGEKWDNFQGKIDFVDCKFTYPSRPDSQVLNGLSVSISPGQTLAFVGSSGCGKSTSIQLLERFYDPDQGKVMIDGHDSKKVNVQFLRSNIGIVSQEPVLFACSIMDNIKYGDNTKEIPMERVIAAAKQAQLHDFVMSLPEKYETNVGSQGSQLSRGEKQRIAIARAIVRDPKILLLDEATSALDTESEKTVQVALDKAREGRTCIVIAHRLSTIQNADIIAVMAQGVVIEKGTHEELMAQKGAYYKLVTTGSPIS

Assay [3] deals with bile salt export pump (BSEP, ABCB11), endogenous in human liver (human (endogenous in human liver)) (UniProt O95342). Description: co-IP; BSEP immunoprecipitated with monoclonal antibody F-6 from human liver membranes solubilised in 1% Triton X-100; immunoblot; control naive mouse IgG2a. In general terms: Immunoblotting shows a protein as a band on a membrane.

Drawing on paper PMC4966956, “Analysis of the Bile Salt Export Pump (ABCB11) Interactome Employing Complementary Approaches” (PLoS ONE, 2016), this text covers binding for four molecules.

No constants are given. Whether binding was seen depends on the method and setting. For some of these results: Binding seen in cells or lysates may run through a third protein. Some entries that bind do so weakly or less than the wild type.

Consider “bile salt export pump (BSEP), purified, with C-terminal affinity tags (from UniProt O95342 1-1321)”, for which, in assay [1], the binding result was “binds”. Regarding “radixin_(1-318), MYTH prey (from UniProt P35241-5 1-318) (domain or fragment)”, the binding result in assay [2] was “binds”.

B1: bile acyl-CoA synthetase, BACS_(640-690), MYTH prey (domain or fragment, UniProt Q9Y2P5-1 640-690)
chain: TFKLMKTRLVREGFNVGIVVDPLFVLDNRAQSFRPLTAEMYQAVCEGTWRL
Consider B1, for which the binding entry in assay [2] was “binds”.

B2: bile acyl-CoA synthetase, endogenous in human liver (enzyme, UniProt Q9Y2P5-1 1-690)
chain: MGVRQQLALLLLLLLLLWGLGQPVWPVAVALTLRWLLGDPTCCVLLGLAMLARPWLGPWVPHGLSLAAAALALTLLPARLPPGLRWLPADVIFLAKILHLGLKIRGCLSRQPPDTFVDAFERRARAQPGRALLVWTGPGAGSVTFGELDARACQAAWALKAELGDPASLCAGEPTALLVLASQAVPALCMWLGLAKLGCPTAWINPHGRGMPLAHSVLSSGARVLVVDPDLRESLEEILPKLQAENIRCFYLSHTSPTPGVGALGAALDAAPSHPVPADLRAGITWRSPALFIYTSGTTGLPKPAILTHERVLQMSKMLSLSGATADDVVYTVLPLYHVMGLVVGILGCLDLGATCVLAPKFSTSCFWDDCRQHGVTVILYVGELLRYLCNIPQQPEDRTHTVRLAMGNGLRADVWETFQQRFGPIRIWEVYGSTEGNMGLVNYVGRCGALGKMSCLLRMLSPFELVQFDMEAAEPVRDNQGFCIPVGLGEPGLLLTKVVSQQPFVGYRGPRELSERKLVRNVRQSGDVYYNTGDVLAMDREGFLYFRDRLGDTFRWKGENVSTHEVEGVLSQVDFLQQVNVYGVCVPGCEGKVGMAAVQLAPGQTFDGEKLYQHVRAWLPAYATPHFIRIQDAMEVTSTFKLMKTRLVREGFNVGIVVDPLFVLDNRAQSFRPLTAEMYQAVCEGTWRL
Consider B2, for which the binding entry in assay [3] is “binds”.
